Results taken from publication PMC11379068.
No constants are given. Whether binding was seen depends on the method and setting. Binding seen in cells or lysates may run through a third protein. Some binding calls cover weakened binding; strength is not graded here.

Sequences of proteins named here, by UniProt entry; tags and fusion partners are left off. Residues count along the entry.
UniProt P20029, residues 20-655: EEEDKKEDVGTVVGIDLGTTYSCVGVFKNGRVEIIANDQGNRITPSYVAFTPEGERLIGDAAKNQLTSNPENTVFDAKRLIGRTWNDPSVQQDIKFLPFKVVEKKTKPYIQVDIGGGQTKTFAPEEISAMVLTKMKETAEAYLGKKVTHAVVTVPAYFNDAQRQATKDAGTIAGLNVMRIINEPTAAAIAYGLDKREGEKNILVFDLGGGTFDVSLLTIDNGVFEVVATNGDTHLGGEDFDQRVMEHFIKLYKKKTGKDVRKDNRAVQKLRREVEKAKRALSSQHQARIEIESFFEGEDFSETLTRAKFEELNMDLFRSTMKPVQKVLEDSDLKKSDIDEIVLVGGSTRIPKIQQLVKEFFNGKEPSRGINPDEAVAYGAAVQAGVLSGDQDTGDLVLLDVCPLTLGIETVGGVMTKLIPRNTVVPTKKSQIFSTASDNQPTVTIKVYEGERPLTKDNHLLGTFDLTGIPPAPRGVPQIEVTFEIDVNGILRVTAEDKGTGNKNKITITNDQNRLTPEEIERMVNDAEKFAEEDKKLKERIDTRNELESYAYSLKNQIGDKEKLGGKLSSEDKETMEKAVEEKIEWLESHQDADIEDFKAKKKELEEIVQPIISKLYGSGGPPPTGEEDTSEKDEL

Target: GRP78 (mouse (endogenous in primary neurons)) (UniProt P20029)
Test: co-IP; lysates from around 10 million primary mouse neurons, immunoprecipitated with protein A/G magnetic beads linked to the appropriate antibody in IP buffer; detected by western blot

B1: MTHFD2 (protein, UniProt P18155 36-350)
chain: EAVVISGRKLAQQIKQEVQQEVEEWVASGNKRPHLSVILVGDNPASHSYVLNKTRAAAEVGINSETIVKPASVSEEELLNSIRKLNNDENVDGLLVQLPLPEHIDERKVCNAVSPDKDVDGFHVINVGRMCLDQYSMLPATPWGVWEIIKRTGIPTLGKNVVVAGRSKNVGMPIAMLLHTDGAHERPGGDATVTISHRYTPKEQLKKHTILADIVISAAGIPNLITADMIKEGAAVIDVGINRVQDPVTAKPKLVGDVDFEGVKKKAGYITPVPGGVGPMTVAMLMKNTIIAAKKVLRPEELEVFKSKQRGVATN
With B1 the binding was “binds”.
